Experimental findings from article PMC3012718 are described below.

Chains of the proteins cited; added tags and fusions are not shown.
UniProt O14893: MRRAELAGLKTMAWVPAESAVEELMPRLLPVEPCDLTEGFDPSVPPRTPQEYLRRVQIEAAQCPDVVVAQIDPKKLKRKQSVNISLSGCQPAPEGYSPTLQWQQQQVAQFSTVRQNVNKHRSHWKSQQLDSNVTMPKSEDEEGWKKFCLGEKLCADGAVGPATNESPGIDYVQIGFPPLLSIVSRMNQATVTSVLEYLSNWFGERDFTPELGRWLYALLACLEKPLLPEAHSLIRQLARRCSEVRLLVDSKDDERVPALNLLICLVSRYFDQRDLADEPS
UniProt Q16637: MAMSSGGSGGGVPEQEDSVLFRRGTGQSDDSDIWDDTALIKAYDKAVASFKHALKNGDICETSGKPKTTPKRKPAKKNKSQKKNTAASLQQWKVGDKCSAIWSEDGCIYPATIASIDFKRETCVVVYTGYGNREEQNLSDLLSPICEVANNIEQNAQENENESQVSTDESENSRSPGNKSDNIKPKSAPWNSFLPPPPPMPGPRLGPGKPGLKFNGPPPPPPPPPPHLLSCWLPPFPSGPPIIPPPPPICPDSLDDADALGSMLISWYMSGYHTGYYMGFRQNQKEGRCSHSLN

These are yes or no findings as the source states them, for the method shown. Binding seen in cells or lysates may run through a third protein. Some binding calls cover weakened binding; strength is not graded here.

This assay has as its target GST-Gemin2 (human Gemin2, hGemin2) (human) (UniProt O14893). In words: pull-down; HIS6-SMN and GST-Gemin2 co-expressed in E. coli; clarified lysate (PBS, 1% Triton X-100) mixed with Glutathione Sepharose 4B beads at 4°C for 3 hr; washed with PBS + 1% Triton X-100, then PBS + 0.1% Triton X-100; bands seen by Coomassie stain and Western blot.

Take “HIS6-SMN (human survival motor neuron protein, hSMN1) (from UniProt Q16637 1-294)”: the binding result is recorded as “binds”.
